From PubChem BioAssay AID720549 (National Center for Advancing Translational Sciences (NCATS), 2013)
The inconclusive results got no clear call from the source. Potencies of inconclusive entries are doubtful fits and often do not repeat.

Protein sequences, listed by entry. Tags and fused reporters are not part of them. Lines headed by an entry give the natural chain unless they say otherwise; changes in a name come on top.
UniProt P54132: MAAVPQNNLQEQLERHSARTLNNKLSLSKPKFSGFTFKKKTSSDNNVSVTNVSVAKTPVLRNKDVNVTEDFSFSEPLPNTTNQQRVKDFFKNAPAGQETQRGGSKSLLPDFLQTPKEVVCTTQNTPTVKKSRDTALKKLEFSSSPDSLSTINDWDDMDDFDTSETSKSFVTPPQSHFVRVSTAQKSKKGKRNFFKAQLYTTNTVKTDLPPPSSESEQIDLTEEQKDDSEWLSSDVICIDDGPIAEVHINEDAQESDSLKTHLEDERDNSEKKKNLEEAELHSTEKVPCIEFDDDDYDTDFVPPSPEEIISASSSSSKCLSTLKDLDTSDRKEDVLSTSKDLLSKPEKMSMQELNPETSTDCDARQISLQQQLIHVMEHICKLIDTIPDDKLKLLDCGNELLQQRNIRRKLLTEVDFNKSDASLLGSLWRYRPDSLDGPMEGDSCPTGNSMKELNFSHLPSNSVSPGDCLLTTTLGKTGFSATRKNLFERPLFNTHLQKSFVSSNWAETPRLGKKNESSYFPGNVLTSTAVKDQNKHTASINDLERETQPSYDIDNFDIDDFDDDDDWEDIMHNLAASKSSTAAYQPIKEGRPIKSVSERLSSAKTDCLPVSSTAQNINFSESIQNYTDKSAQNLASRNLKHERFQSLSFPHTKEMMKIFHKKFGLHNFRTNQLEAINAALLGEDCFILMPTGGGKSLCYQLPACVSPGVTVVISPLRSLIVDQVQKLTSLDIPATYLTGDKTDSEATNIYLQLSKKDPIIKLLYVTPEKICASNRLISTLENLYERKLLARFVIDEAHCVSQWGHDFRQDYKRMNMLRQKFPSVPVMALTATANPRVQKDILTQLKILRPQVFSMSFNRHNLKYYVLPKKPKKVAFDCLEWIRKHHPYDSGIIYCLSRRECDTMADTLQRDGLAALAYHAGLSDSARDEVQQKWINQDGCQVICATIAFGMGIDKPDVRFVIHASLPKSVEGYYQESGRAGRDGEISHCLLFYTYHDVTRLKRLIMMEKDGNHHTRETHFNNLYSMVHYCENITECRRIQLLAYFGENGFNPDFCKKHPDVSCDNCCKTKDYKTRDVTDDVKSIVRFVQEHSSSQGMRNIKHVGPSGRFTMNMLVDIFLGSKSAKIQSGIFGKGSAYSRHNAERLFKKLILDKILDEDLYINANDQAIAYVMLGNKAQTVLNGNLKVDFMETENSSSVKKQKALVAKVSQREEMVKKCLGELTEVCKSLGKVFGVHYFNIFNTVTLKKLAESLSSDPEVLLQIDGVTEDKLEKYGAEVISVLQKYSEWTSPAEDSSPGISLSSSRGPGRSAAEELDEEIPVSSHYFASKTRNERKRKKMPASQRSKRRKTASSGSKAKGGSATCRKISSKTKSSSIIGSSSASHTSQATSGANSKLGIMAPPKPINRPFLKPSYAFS

Target: RecQ-like DNA helicase BLM (Homo sapiens) (UniProt P54132)
Test: qHTS for Inhibitors of Bloom's syndrome helicase (BLM): Helicase ATPase Orthogonal Confirmatory Assay for SAR
Conditions: purified BLM helicase ATPase activity assay; active means well fitted inhibition curve with a large enough effect; inconclusive means small, poorly fitted or top-dose-only effect; inactive means flat fitted curve, though single readings scatter
Source text: Human RecQ DNA helicases participate in maintenance of genome stability and DNA repair. While other types of helicases have been explored as targets for drug development, members of the RecQ family have remained less well characterized. Mutations of the Bloom helicase gene have been associated with the rare human genetic disease called Bloom syndrome. […] Moreover, identified inhibitors can be used in cells and animal models to examine the consequences of inhibition on the survival of cancer cells where it has been shown that BLM plays an important role.
A fluorescence-based, biochemical assay in 1536 well format was developed to evaluate inhibition of BLM DNA unwinding activity. This assay was used to screen the MLPCN library. […] This luminescence assay employs a purified BLM enzyme and a single stranded BLM oligo substrate ([…]). For this assay increase in luminescence signal is greater than or equal to 700 RLU. […]
Three microliter of reaction buffer (25mM Tris-HCl pH 8.0, 50mM NaCl, 2mM MgCl2, 1mM DTT, and 0.01% Tween- 20, and 2nM BLM enzyme) was dispensed into a 1536-well assay plates (Greiner, solid white medium-binding) via Aurora Discovery BioRAPTR Flying Reagent Dispenser (FRD). […] After 30 min at room temperature, the luminescence signal was detected using the ViewLux CCD imager. […]

SMILES | Potency
N#Cc1ccc(NC(=O)Nc2nnc(-c3ccncc3)s2)cc1Cl | inconclusive: 913 nM [inhibitor, full curve]
N#Cc1ccc(NC(=O)Nc2nnc(-c3ccncc3)s2)cc1Br | inconclusive: 646 nM [inhibitor, full curve]
